Data: patent publication US20250381269A1, “BISPECIFIC ANTIBODY BINDING EGFR AND B7-H3” (FORTVITA BIOLOGICS (SINGAPORE) PTE. LTD., priority 2022, published 2025)
These are yes or no findings as the source states them, for the method shown. Some results given as binding are weak or reduced against the parent protein; the word gives no strength.

Target: T1, B7H3 (human) (UniProt Q5ZPR3)
T1 sequence (membrane protein chain, looked up): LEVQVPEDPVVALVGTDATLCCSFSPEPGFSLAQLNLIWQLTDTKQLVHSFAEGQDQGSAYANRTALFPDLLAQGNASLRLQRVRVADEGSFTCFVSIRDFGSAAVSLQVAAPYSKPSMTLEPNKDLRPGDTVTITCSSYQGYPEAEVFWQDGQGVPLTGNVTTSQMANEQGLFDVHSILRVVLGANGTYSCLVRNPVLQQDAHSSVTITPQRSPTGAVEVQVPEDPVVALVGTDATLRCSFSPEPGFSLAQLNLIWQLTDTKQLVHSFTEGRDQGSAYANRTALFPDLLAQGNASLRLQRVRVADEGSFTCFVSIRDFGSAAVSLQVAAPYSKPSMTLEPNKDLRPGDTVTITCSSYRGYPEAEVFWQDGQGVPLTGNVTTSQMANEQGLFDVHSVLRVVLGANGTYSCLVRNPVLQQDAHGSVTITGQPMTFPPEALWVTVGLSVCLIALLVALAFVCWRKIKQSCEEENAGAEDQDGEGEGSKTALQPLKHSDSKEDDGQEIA
Experiment: flow cytometry on cell lines, 10 µg/mL antibody, APC-anti human Fc secondary antibody, y axis 'Fold of expression (mAb/IgG)'

binding: binds
B1: Hz20G5.26mAb (antibody, V domains shown)
VH: QVQLVQSGAEVKKPGASVKVSCKASGYTFTEYIMHWVRQAPGQRLEWMGGINPGTGGTTYNQKFKDRVTITVDTSASTAYMELSSLRSEDTAVYYCTRRTPPWHFAVWGQGTLVTVSS
VL: DIQLTQSPSFLSASVGDRVTITCSASSSVSYIHWYQQKPGKAPKRWIYDTSRLASGVPSRFSGSGSGTEFTLTISSLQPEDFATYYCQQWSSAPLTFGGGTKVEIK
